From patent US20260226176A1 (THERANOVIR, published 2026)
No constants are given. Whether binding was seen depends on the method and setting. Some entries that bind do so weakly or less than the wild type.

Protein sequences, listed by entry. Tags and fused reporters are not part of them. Residues count along the entry.
UniProt O14786, residues 22-856: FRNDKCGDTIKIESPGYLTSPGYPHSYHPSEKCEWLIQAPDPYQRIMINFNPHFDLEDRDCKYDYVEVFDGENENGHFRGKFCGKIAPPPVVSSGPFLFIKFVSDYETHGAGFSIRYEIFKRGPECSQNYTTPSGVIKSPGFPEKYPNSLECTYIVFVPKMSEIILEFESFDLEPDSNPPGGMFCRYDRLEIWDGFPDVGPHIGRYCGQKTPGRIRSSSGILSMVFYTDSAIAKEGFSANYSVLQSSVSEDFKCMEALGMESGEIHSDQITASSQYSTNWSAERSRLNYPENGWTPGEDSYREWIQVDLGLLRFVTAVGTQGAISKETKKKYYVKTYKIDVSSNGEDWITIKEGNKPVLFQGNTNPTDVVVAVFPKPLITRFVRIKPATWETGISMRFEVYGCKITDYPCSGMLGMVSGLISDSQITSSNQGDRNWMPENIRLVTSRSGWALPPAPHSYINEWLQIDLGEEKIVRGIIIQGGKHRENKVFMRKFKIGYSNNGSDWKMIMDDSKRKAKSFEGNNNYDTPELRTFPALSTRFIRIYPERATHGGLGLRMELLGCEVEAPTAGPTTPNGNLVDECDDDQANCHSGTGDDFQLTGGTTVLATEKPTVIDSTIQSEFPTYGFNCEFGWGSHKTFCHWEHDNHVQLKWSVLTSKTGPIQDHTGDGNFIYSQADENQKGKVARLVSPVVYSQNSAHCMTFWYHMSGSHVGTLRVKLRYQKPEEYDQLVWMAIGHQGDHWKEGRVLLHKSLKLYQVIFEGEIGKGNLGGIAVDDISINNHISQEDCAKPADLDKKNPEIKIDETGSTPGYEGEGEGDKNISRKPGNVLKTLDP

Molecular target: recombinant human NRP-1 (3870-N1-025, Bio-Techne) (human) (UniProt O14786)
Experiment: ELISA

Binder | binding
variant 6 a-NRP1_LEP n° 1 (antibody, V domains shown, humanized variant of 21B10; isotype control hIgG4; also called Var6; variant no 6) VH: EVQLVESGGGLVQPGGSLRLSCAASGFTFSSYSMHWVRQAPGKGLEWVSYISSGSSTIHYADSVKGRFTISRDNAKNSLYLQMNSLRAEDTAVYYCARRHYGSSRYWYFDVWGQGTTVTVSS VL: DIQMTQSPSTLSASVGDRVTITCRASQSIKSYLAWYQQKPGKAPKLLIYYASSLASGVPSRFSGSGSGTEFTLTISSLQPDDFATYYCQQYGESSYTFGQGTKLEIK | binds
variant 8 a-NRP1_LEP n° 1 (antibody, V domains shown, humanized variant of 21B10; isotype control hIgG4; also called Var8; variant no 8) VH: EVQLVESGGGLVQPGGSLRLSCAASGFTFSSYSMHWVRQAPGKGLEWVSYISSGSSTIHYADSVKGRFTISRDNAKNSLYLQMNSLRAEDTAVYYCARRHYGSSRYWYFDVWGQGTTVTVSS VL: EIVLTQSPATLSLSPGERATLSCRASQSVKSYLAWYQQKPGQAPRLLIYYASSRATGIPARFSGSGSGTDFTLTISSLEPEDFAVYYCQQYSESPYTFGQGTKLEIK | binds
